Earlier results in patent publication US9884040B2, “Desethylamiodarone for use in cancer treatment” (PÉCSI TUDOMÁNYEGYETEM, priority 2015, dated 2018).

Settings: after amiodarone in therapeutic doses; cited from earlier work

Compound: CCCCc1oc2ccccc2c1C(=O)c1cc(I)c(OCCN(CC)CC)c(I)c1 [amiodarone]
- Concentration in patient plasma: 1600 to 5300 nM
